Assay results from article PMC9295074.

Sequences of proteins named here, by UniProt entry; tags and fusion partners are left off.
UniProt Q92754: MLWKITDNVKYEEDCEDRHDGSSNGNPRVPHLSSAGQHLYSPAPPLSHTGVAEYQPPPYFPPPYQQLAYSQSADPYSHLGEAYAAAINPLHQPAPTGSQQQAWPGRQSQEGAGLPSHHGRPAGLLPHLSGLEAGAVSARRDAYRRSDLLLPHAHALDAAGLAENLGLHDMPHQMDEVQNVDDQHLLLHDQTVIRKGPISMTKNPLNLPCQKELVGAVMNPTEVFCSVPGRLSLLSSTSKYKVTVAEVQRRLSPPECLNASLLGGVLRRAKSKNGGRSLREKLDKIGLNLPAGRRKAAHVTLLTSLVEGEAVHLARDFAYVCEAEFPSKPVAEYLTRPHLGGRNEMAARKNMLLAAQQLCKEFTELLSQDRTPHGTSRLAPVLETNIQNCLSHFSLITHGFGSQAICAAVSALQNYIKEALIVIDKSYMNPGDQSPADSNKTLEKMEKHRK
UniProt O94972: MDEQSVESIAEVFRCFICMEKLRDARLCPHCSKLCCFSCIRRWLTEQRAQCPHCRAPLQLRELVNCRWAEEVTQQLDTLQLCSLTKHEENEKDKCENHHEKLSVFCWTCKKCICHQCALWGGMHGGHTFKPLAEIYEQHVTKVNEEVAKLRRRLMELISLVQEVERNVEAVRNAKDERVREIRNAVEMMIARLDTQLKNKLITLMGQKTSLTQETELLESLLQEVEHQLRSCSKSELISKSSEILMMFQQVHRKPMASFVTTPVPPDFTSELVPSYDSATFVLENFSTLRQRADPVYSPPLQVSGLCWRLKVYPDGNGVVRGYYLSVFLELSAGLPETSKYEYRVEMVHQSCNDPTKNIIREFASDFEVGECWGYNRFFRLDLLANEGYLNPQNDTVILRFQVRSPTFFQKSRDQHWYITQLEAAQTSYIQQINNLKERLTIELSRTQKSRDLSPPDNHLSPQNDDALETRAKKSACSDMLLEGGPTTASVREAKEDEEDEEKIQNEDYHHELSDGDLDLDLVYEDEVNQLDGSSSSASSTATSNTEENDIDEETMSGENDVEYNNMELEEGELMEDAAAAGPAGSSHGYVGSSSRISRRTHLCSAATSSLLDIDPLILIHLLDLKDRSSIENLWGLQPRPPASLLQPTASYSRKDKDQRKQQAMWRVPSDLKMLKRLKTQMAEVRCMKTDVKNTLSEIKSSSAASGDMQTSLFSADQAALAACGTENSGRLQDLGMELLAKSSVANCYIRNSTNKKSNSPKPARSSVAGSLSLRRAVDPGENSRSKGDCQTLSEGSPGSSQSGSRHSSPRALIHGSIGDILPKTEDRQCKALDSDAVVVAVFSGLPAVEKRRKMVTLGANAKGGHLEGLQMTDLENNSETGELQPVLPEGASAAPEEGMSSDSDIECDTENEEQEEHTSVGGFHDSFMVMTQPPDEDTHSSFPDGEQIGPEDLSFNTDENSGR

Target: Activator Protein 2 gamma (AP-2γ) (human (endogenous in MCF-7 and BT474)) (UniProt Q92754)
Assay: affinity purification with mass spectrometry; RIME: MCF-7 cells cross-linked with 1% formaldehyde for 8 min at RT; endogenous AP-2γ immunoprecipitated with anti-AP-2γ (sc12762x) on sheep anti-mouse Dynabeads; label-free LC-MS/MS; IgG control; three replicates

binding: binds
Substance: Tripartite motif-containing 37 (TRIM37) (from UniProt O94972 1-964)

These are yes or no findings as the source states them, for the method shown. In cells and extracts the contact can be indirect. These calls come from enrichment with a bait or labelling near it, and not all partners need be listed.
